Literature values as cited in patent US20200383905A1 (priority 2015, published 2020).

Tested on: patients undergoing abdominal surgery
Details: on-demand dosing; cited from earlier work

In the case of CN1CC[C@]23c4c5ccc(O)c4O[C@H]2[C@@H](O)C=C[C@H]3[C@H]1C5 [morphine], the “Mean cumulative dose, first 90 minutes” value is given as 13.9 mg.
